This is one part of the list.
B1: il2ra_site2_3nfp_normal_mot_HHH_b2_07129_000000128_0001_19_36_H_._HHH_b2_06118_af2_0001_0000300008_0000001_1_af2pred_0001_af2pred_1_swapped (protein)
chain: SSSSDEEERLRELEELLEELKKEGDEEELRKVARELAQLAYKLNDHEAFALAALILEELLSSSSS
B2: il2ra_site1_3nfp_sap_20_mot_HHH_b2_07201_af2_000000232_0001_1_20_H_._HHH_b1_01113_af2_0001_0000400072_0000001_1_0001_af2pred_0001_af2pred_swapped (protein)
chain: SEEFAIERLLEELQRLPDPRVREIVEEVKELLRQGDPEKALELLEELAEELGSPKLKRYLELIEK
B3: il2ra_site1_2b5i_normal_mot_HHH_b1_02271_000000068_0001_1_16_H_._HHH_b1_08580_af2_0001_0000400029_0000001_0_af2pred_dldesign_0_af2pred (protein)
chain: SSSSSSRREFMEKLEELYKEYEKTKNPELKKKIDELIAEARAAGNPRLIRFGDFVRDLLESSSSS
B4: il2ra_site2_2erj_sap_28_mot_64bd02d26d05ce9f1a62b616cea0b888_0001_af2_000000029_0001_36_49_H_._HHH_b2_05867_0001_0000200024_0000001_0_0001_af2pred_0001_1_af2pre … (protein)
chain: SSSSDEEREEAERLLEEAERLLEEGNPEEAEKLLREAFQLAMRGGDEELAHKIARALLLFFSSSS
B5: il2ra_site2_3nfp_sap_19_mot_HHH_b1_03376_000000004_0001_41_55_H_._88162e6262ef81793ed720f4f561f318_0001_0001_0000800035_0000001_0_0001_af2pred_0001_1_af2pred_sw … (protein)
chain: SSDEEQEESEELKELIREALEKNDDEKLRKLIKEAASFALQLNDEELLEFASEARALLAKLRLSS
B6: il2ra_site2_2erj_normal_mot_HHH_b2_06646_af2_000000081_0001_19_36_H_._HHH_b2_01016_0001_0000100001_0000001_0_1_af2pred_0001_af2pred (protein)
chain: SSSSSSSEEEEVERLLEEAKKIPDLREALKALQKADKIAAESNNDELFELVQEVFKELSSSSSSS
B7: il2ra_site1_1z92_sap_13_mot_HHH_b1_01057_000000284_0001_42_56_H_._HHH_b2_02220_0001_0000100004_0000001_0_0001 (protein)
chain: SSSSSAEMSIELALRVIRRLRERGDEEKVRKWLEFVKRQAKILNDEEAERLVEELEEELRSSSSS
B8: il2ra_site2_2erj_normal_mot_HHH_b1_03609_af2_000000077_0001_42_55_H_._HHH_b1_07745_0001_0000100001_0000001_0 (protein)
chain: SSSSSSEEEERIEELLEEAKRTEDPEEVEKLLREASELAFHANNFELWSEVSEVFRKLASSSSSS
B9: il2ra_site2_3nfp_normal_mot_HHH_b1_02297_000000279_0001_41_58_H_._HHH_b1_08162_0001_0000100002_0000001_0_af2pred_0001_af2pred (protein)
chain: SSSSSEEVEELLRQIEELLEEGDEEEVLKLLRRVARLAFRLNNEELFRAVLELAEELAELSSSSS
B10: il2ra_site2_2erj_normal_mot_HHH_b1_03107_000000098_0001_39_52_H_._HHH_b2_03329_0001_0000200010_0000001_0 (protein)
chain: SSSSSSEKEAWEEVAELLARAQHIEDEEEVRELLEEAKRIAEEANNPTLKRYVEFVERDFSSSSS
B11: il2ra_site1_2b5i_normal_mot_a7d4ab743ae57deeac5d741f7278d18b_0001_af2_000000162_0001_36_49_H_._HHH_b1_05055_0001_0000100007_0000001_0_af2pred_dldesign_0_af2pred (protein)
chain: SSSNPLALKVYKLTKKMLEKLKSLGDPEAIRETAAEATARLNALGAPELAAELRAYTEALLSSSS
B12: il2ra_site1_2b5i_sap_11_mot_HHH_b2_04131_000000150_0001_1_16_H_._HHH_b1_06460_af2_0001_0000400019_0000001_0_0001_af2pred_dldesign_0_af2pred (protein)
chain: SSSSSPKREEVERLIEKAKELKAAGKLREALELLEKAYKLAAEAEDDELMDRIEELVRELSSSSS
B13: il2ra_site2_2erj_sap_23_mot_cf89365494dbba80ae51c8475d1ce666_0001_af2_000000081_0001_35_48_H_._HHH_b2_04892_af2_0001_0000300033_0000001_0_0001 (protein)
chain: SSSSNEELKRLYELANRIMELLAKGNQEEAEELVEELKELARKFGSDNAREIAEWLERKVNSSSS
B14: il2ra_site1_1z92_normal_mot_ems_4hM_4976_0002_000000264_0001_48_63_H_._0f30012763798aa20df1e24f2283b1b8_0001_1_0001_0000100008_0000001_0_af2pred_0001_af2pred (protein)
chain: DEEELKELAERVGVPPEQIKRAIEAVREFSKLPPRNAEKFFRQIVRKLEEGDPTAERSLRDLLEL
B15: il2ra_site2_3nfp_sap_21_mot_HHH_b1_07789_af2_000000124_0001_43_56_H_._23585b24c41abd7baf29a1ffab7efa73_0001_af2_0001_0000500005_0000001_0_0001 (protein)
chain: SSSSDDHELYERVAELLKRANKIEDEEEVRRLLEEAEELAEEGNSPVLKRSVEFVAKALLSSSSS
B16: il2ra_site1_1z92_sap_13_mot_b1fbee8209167eaadba3689d49187f1a_0001_1_af2_000000019_0001_16_31_H_._HEEHE_2194_af2_0001_0000400022_0000001_0_0001_af2pred_0001_af2p … (protein)
chain: SSSSSSKEKNARIIVEMAVRNAGLSEEQEEELRKLAEELAEEGLSFEEISRILDKLALELSSSSS
B17: il2ra_site2_3nfp_sap_19_mot_HHH_b1_05208_af2_000000289_0001_23_38_H_._HHH_b1_06843_0002_0000700032_0000001_0_0001 (protein)
chain: SSDYELSIKLIVAHAAQFVSPEQAKKLEELLEKDEELALEIAHYLARVDQEEAEEWIKELVEMSS
B18: il2ra_site2_2erj_normal_mot_HHH_b1_02106_af2_000000056_0001_20_36_H_._HHH_b1_08028_0001_0000400037_0000001_0 (protein)
chain: SSSSDLEEEVEQLIREAEELSRKDPEEAFRVLREASEIAIELGNFELFDEIAELLREIAELSSSS

molecular target: il2ra, P01589; experiment: yeast display titration

Apparent Kd, inactive:
B1 no binding seen
B2 no binding seen
B3 no binding seen
B4 no binding seen
B5 no binding seen
B6 no binding seen
B7 no binding seen
B8 no binding seen
B9 no binding seen
B10 no binding seen
B11 no binding seen
B12 no binding seen
B13 no binding seen
B14 no binding seen
B15 no binding seen
B16 no binding seen
B17 no binding seen
B18 no binding seen

Random excerpt: 2 records from the list, in no set order.
Apparent Kd, inactive:
B14 no binding seen
B2 no binding seen

Source: publication PMC10163288
